PubChem BioAssay AID504774 – Drosophila RNAi Screening Center, 2011

Purpose: 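Knock-downs that shift viability of MMS-exposed cells relative to untreated ones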 (primary screen)
Cells: Drosophila Kc167 cells
Knock-down reagent: long dsRNA against Drosophila genes, about 0.25 µg dsRNA per well
Timing: about 6 days: 3 days knock-down, then 3 days with or without MMS
Challenge: methyl methanesulphonate 0.004% (w/v) for 3 days after knock-down
Measurement: 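ATP-dependent luminescence as a measure of live cells in MMS-exposed wells, quantile normalised within each plate, with replicate values also given as a mean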
Reading the numbers: mean viability with MMS and viability with MMS: higher = more surviving cells after MMS
In all, the deposit lists about 23,000 reagents; below is a random part of those that have a named target and a result. 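Values are quantile-normalised luminescence on an arbitrary scale; higher means more cells surviving MMS.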 Names joined by + are all predicted targets of the reagent.

predicted target | DRSC id | mean viability with MMS | viability with MMS, replicate 1 | viability with MMS, replicate 2
CG5447 | DRSC15801 | 3.29e6 | 3.70e6 | 3.70e6
rad50 | DRSC04523 | 3.48e6 | 3.87e6 | 4.04e6
CG13607 | DRSC14610 | 3.40e6 | 3.83e6 | 3.82e6
Gr97a | DRSC13802 | 3.38e6 | 3.77e6 | 3.86e6
Tbc1d15-17 | DRSC00313 | 3.31e6 | 3.72e6 | 3.65e6
EMRE | DRSC06686 | 3.56e6 | 3.96e6 | 4.12e6
bma | DRSC09896 | 3.54e6 | 3.94e6 | 4.08e6
bma | DRSC10164 | 3.72e6 | 4.14e6 | 4.23e6
Skp2 | DRSC12329 | 3.52e6 | 4.00e6 | 3.96e6
LManI | DRSC02838 | 3.51e6 | 4.05e6 | 3.91e6
GstE13 | DRSC06083 | 3.39e6 | 3.73e6 | 3.92e6
stil | DRSC07699 | 3.57e6 | 4.03e6 | 4.08e6
S6k | DRSC11276 | 3.53e6 | 3.95e6 | 4.06e6
Zn72D | DRSC11318 | 3.54e6 | 4.11e6 | 3.91e6
hng1 | DRSC04555 | 3.73e6 | 4.35e6 | 4.14e6
anchor | DRSC10861 | 3.62e6 | 4.17e6 | 4.01e6
CAH4 | DRSC22433 | 3.61e6 | 4.03e6 | 4.11e6
gus | DRSC04885 | 3.71e6 | 4.15e6 | 4.41e6
gus | DRSC04886 | 3.53e6 | 4.00e6 | 3.85e6
toc | DRSC00169 | 3.56e6 | 4.00e6 | 4.09e6
toc | DRSC00171 | 3.40e6 | 3.83e6 | 3.93e6
toc | DRSC00842 | 3.52e6 | 3.99e6 | 3.96e6
CG8910 | DRSC07414 | 3.54e6 | 3.95e6 | 4.08e6
Keap1 | DRSC15528 | 3.78e6 | 4.17e6 | 4.29e6
CG1074 | DRSC12143 | 3.61e6 | 3.95e6 | 4.23e6
CG32213 + CG12519 + 825-Oak + 1 more | DRSC09615 | 3.61e6 | 4.16e6 | 4.01e6
rtet | DRSC14160 | 3.61e6 | 4.00e6 | 4.17e6
Mst36Fa | DRSC21564 | 3.55e6 | 4.02e6 | 4.04e6
CG31226 | DRSC21724 | 3.16e6 | 3.68e6 | 3.79e6
SLC22A | DRSC11826 | 3.50e6 | 3.89e6 | 4.01e6
SLC22A | DRSC11827 | 3.65e6 | 4.05e6 | 4.19e6
CG12104 | DRSC08254 | 3.85e6 | 4.34e6 | 4.35e6
CG6262 | DRSC06971 | 2.87e6 | 3.53e6 | 3.52e6
CG6262 | DRSC23105 | 3.54e6 | 4.14e6 | 3.93e6
CG16989 | DRSC18535 | 3.57e6 | 4.08e6 | 4.03e6
Tcs5 | DRSC09774 | 3.46e6 | 4.03e6 | 3.82e6
edl | DRSC06516 | 3.53e6 | 4.02e6 | 3.98e6
btz | DRSC14566 | 3.33e6 | 3.76e6 | 3.83e6
CG7720 | DRSC16306 | 3.54e6 | 4.04e6 | 3.98e6
CG7720 | DRSC16307 | 2.05e6 | 4.17e6 | 4.20e6
CG11892 | DRSC14428 | 3.47e6 | 3.90e6 | 3.97e6
CG4168 | DRSC01446 | 3.47e6 | 3.97e6 | 3.91e6
CG4168 | DRSC01447 | 3.42e6 | 3.89e6 | 3.83e6
CG4168 | DRSC01933 | 3.58e6 | 4.05e6 | 4.09e6
CG4168 | DRSC21319 | 3.52e6 | 3.88e6 | 4.12e6
CG4168 | DRSC22789 | 3.41e6 | 3.94e6 | 3.89e6
CG32023 | DRSC08946 | 3.59e6 | 4.03e6 | 4.09e6
Gr39b | DRSC01848 | 3.61e6 | 4.06e6 | 4.10e6
Hrb98DE | DRSC16709 | 3.42e6 | 3.88e6 | 3.89e6
vn | DRSC11408 | 3.26e6 | 3.64e6 | 3.66e6
vn | DRSC23221 | 3.75e6 | 4.27e6 | 4.23e6
CG2017 | DRSC12293 | 3.63e6 | 4.11e6 | 4.16e6
RanBPM | DRSC06079 | 3.43e6 | 3.89e6 | 3.86e6
Hsepi | DRSC04986 | 3.48e6 | 3.95e6 | 3.92e6
COX3 (retired record) | DRSC21279 | 3.51e6 | 4.06e6 | 3.93e6
Alg-2 | DRSC07799 | 3.63e6 | 4.17e6 | 4.02e6
Dlip3 | DRSC07401 | 3.85e6 | 4.26e6 | 4.37e6
Ldaf1 | DRSC17963 | 3.60e6 | 4.07e6 | 4.07e6
CG7365 | DRSC10824 | 3.56e6 | 4.07e6 | 4.00e6
CG32576 | DRSC19136 | 3.67e6 | 4.17e6 | 4.06e6
CG3397 | DRSC15487 | 3.71e6 | 4.20e6 | 4.23e6
osk | DRSC17023 | 3.68e6 | 4.26e6 | 4.10e6
CG11581 | DRSC19407 | 3.59e6 | 4.08e6 | 4.06e6
Abp1 | DRSC09693 | 3.45e6 | 3.84e6 | 3.96e6
CG9030 | DRSC20139 | 3.51e6 | 3.96e6 | 4.00e6
CG4646 | DRSC06876 | 3.56e6 | 3.95e6 | 4.05e6
Kpc1 | DRSC16107 | 3.44e6 | 3.81e6 | 3.95e6
pie | DRSC03590 | 3.28e6 | 3.68e6 | 3.68e6

Ordered by “viability with MMS, replicate 1” (high to low): 4 of the entries above
predicted target | DRSC id | mean viability with MMS | viability with MMS, replicate 1 | viability with MMS, replicate 2
toc | DRSC00169 | 3.56e6 | 4.00e6 | 4.09e6
toc | DRSC00842 | 3.52e6 | 3.99e6 | 3.96e6
CG8910 | DRSC07414 | 3.54e6 | 3.95e6 | 4.08e6
toc | DRSC00171 | 3.40e6 | 3.83e6 | 3.93e6
